In US6066621A, “Synthetic peptides for the treatment of myasthenia gravis” (Yeda Research and Development Co. Ltd., priority 1995, dated 2000):
Like-named read-outs stand apart in the source and are kept apart here. Not every detail of the peptide structures is certain; ends, links or a residue may be inferred. Where no end group is shown, it is not given here.

Legend:
[1] = system: T cells specific to the myasthenogenic peptide p195-212; experiment: Table 1 activity of analogs of p195-212 on specific T cells (stimulation / inhibition); assay type: cell-based, mouse; set-up: key: Stimulatory: analogs that stimulated T cells; Inhibitory: analogs that could not induce stimulation but could inhibit the stimulating activity of the myasthenogenic peptides; No effect: analogs that neither stimulated nor inhibited T cells specific to the myasthenogenic peptides
[2] = system: peripheral blood lymphocytes (PBL) of myasthenia gravis patients; details: for % Inhibition Mean ± SD / % Inhibition Range: stimulation of PBL of MG patients in the presence of p195-212; for % Inhibition (207 Ala:p195-212): ratio 1:1
T cell line TCSJL195-212 = experiment: Proliferative response of T cell line TCSJL195-212 to peptides; assay type: cell-based, SJL mouse
[3] = system: peripheral blood lymphocytes (PBL) of myasthenia gravis patients; experiment: PBL proliferative response of myasthenia gravis patients to p195-212 and analog; assay type: cell-based, human
[4] = system: lymph node cells of p259-271 immunized BALB/c mice; experiment: Proliferative response of lymph node cells of p259-271 immunized BALB/c mice to peptides; assay type: cell-based; details: 10, 20, 50, 100 μg/well; up to
[5] = system: TCBALB/c259-271 T cell line with p259-271 specific B cells; experiment: In vitro antibody production assay (helper activity of TCBALB/c259-271 line); assay type: cell-based, BALB/c mice; details: 0.001-5 μg/well peptide
[6] = system: T cells specific to the myasthenogenic peptide p259-271; experiment: Table 1 activity of analogs of p259-271 on specific T cells (stimulation / inhibition); assay type: cell-based, mouse; set-up: key: Stimulatory: analogs that stimulated T cells; Inhibitory: analogs that could not induce stimulation but could inhibit the stimulating activity of the myasthenogenic peptides; No effect: analogs that neither stimulated nor inhibited T cells specific to the myasthenogenic peptides
[7] = system: T cell line TCBALB/c259-271; experiment: Proliferative response of T cell line TCBALB/c259-271 to peptides (3H-thymidine incorporation); assay type: cell-based, BALB/c mice; details: all doses tested (1, 5, 10, 20 μg/well); up to
[8] = system: peripheral blood lymphocytes (PBL) of myasthenia gravis patients; experiment: Inhibition of p259-271 specific proliferative response of PBL of MG patients; assay type: cell-based, human
[9] = system: peripheral blood lymphocytes (PBL) of myasthenia gravis patients; experiment: PBL proliferative response of myasthenia gravis patients to p259-271; assay type: cell-based, human
[10] = stimulation of PBL of MG patients in the presence of p259-271

**Q.** With DTPYLDITFHFVMQRLPL [203Phe] as the sequence, how does the Activity [1] read?
**A.** The Activity was “No effect”.

**Q.** For DTPYLDITYGFVMQRLPL [204Gly], which “Inhibitory activity: percent of responder MG patients whose PBL response to p195-212 was inhibited” value [2] is on record?
**A.** The value was 100%.

**Q.** And the “Inhibitory activity: responder MG patients inhibited / tested (response to p195-212)” value [2]?
**A.** The value was 24.

**Q.** What about the “Inhibitory activity: responder MG patients inhibited / tested (response to p195-212)” value ([2]; listed as 204 Gly) of the same sequence?
**A.** The value was 24/24.

**Q.** And the “% Inhibition Mean ± SD” value [2]?
**A.** Its value is 83.2 ± 22.5%.

**Q.** What about the “% Inhibition Range” value [2] of the same sequence?
**A.** The value was 23-100%.

**Q.** And the Activity [1]?
**A.** The Activity was “Inhibitory”.

**Q.** For DTPYLDITYHFVAQRLPL [207Ala], which “stimulation of proliferation of the p195-212 specific T cell line” value (T cell line TCSJL195-212) is on record?
**A.** The value was “did not stimulate”.

**Q.** And the “Inhibitory activity: percent of responder MG patients whose PBL response to p195-212 was inhibited” value [2]?
**A.** The value was 96%.

**Q.** What about the “Inhibitory activity: responder MG patients inhibited / tested (response to p195-212)” value [2] of the same sequence?
**A.** Its value is 23 out of 24.

**Q.** What about the “Inhibitory activity: responder MG patients inhibited / tested (response to p195-212)” value ([2]; listed as 207 Ala) of the same sequence?
**A.** The value was 23/24.

**Q.** What about the “% Inhibition (207 Ala:p195-212)” value ([2]; patient four) of the same sequence?
**A.** The value was 100%.

**Q.** And the “% Inhibition (207 Ala:p195-212)” value ([2]; patient one)?
**A.** Its value is 77%.

**Q.** What about the “% Inhibition (207 Ala:p195-212)” value ([2]; patient two) of the same sequence?
**A.** The value was 100%.

**Q.** What about the “% Inhibition Mean ± SD” value [2] of the same sequence?
**A.** The value was 80.5 ± 21.9%.

**Q.** And the “% Inhibition Range” value [2]?
**A.** The value was 35-100%.

**Q.** And the Activity [1]?
**A.** Its Activity is “Inhibitory”.

**Q.** And the “Analog SI” value ([3]; patient four)?
**A.** The value was 1.

**Q.** What about the “Analog SI” value ([3]; patient one) of the same sequence?
**A.** The value was 1.

**Q.** What about the “Analog SI” value ([3]; patient two) of the same sequence?
**A.** Its value is 1.

**Q.** And the “proliferative response of PBL to the analog” value ([3]; patients one, 10, 25, 50, 100 μM)?
**A.** Its value is “no proliferative responses”.

**Q.** For DTPYLDITYHFVMDRLPL [208Asp], which Activity [1] is on record?
**A.** Its Activity is “Stimulatory”.

**Q.** How did the Activity [1] turn out when DTPYLDITYHFVMNRLPL [208Asn] was run?
**A.** Its Activity is “Stimulatory”.

**Q.** With DTPYLDITYHFVMQKLPL [209Lys] as the sequence, how does the Activity [1] read?
**A.** The Activity was “Stimulatory”.

**Q.** For DTPYLKITYHFVMQRLPL [200Lys], which Activity [1] is on record?
**A.** Its Activity is “Stimulatory”.

**Q.** Which results are given for VIVDLIPSTSSAV [262Asp]?
**A.** proliferative response, % of that obtained by using p259-271 [4]: ≤ 32.3%; helper activity: anti-p259-271 antibody production in presence of peptide [5]: as efficient as that observed in the presence of the parent peptide; Activity [6]: No effect; proliferative response, % of the response obtained with p259-271 [7]: ≤ 34.3%; % Inhibition (I:S) ([8]; patient one, I:S 1:1): 70%; % Inhibition (I:S) ([8]; patient three, I:S 1:1): 78%; % Inhibition (I:S) ([8]; patient two, I:S 1:1): 65%

**Q.** Which Activity [6] does the source give for VIVELIASTSSAV [265Ala] here?
**A.** The Activity was “Stimulatory”.

**Q.** With VIVELIFSTSSAV [265Phe] as the sequence, how does the Activity [6] read?
**A.** Its Activity is “Inhibitory”.

**Q.** For VIVELILSTSSAV [265Leu], which Activity [6] is on record?
**A.** Its Activity is “Inhibitory”.

**Q.** Which “proliferative response, % of that obtained by using p259-271” value [4] does the source give for VIVELIPDTSSAV [266Asp] here?
**A.** The value was “up to 53.2%”.

**Q.** And the “helper activity: anti-p259-271 antibody production in presence of peptide” value [5]?
**A.** Its value is “low antibody titers”.

**Q.** And the Activity [6]?
**A.** Its Activity is “No effect”.

**Q.** And the “proliferative response, % of the response obtained with p259-271” value [7]?
**A.** Its value is “up to 12%”.

**Q.** What about the “% Inhibition (I:S)” value ([8]; patient one, I:S 1:1) of the same sequence?
**A.** Its value is 82.7%.

**Q.** What about the “% Inhibition (I:S)” value ([8]; patient three, I:S 4:1) of the same sequence?
**A.** Its value is 34.3%.

**Q.** What about the “% Inhibition (I:S)” value ([8]; patient two, I:S 1:1) of the same sequence?
**A.** The value was 85.6%.

**Q.** For “VIVELIPSTSSAV [p259-271, Val-Ile-Val-Glu-Leu-Ile-Pro-Ser-Thr-Ser-Ser-Ala-Val]”, which “percent of MG patients whose PBL responded to the peptide” value ([9]; 40 MG patients tested) is on record?
**A.** Its value is 580%.

**Q.** What about the “number of MG patients whose PBL responded to the peptide” value ([9]; out of 40 MG patients tested) of the same sequence?
**A.** Its value is 23.

**Q.** What about the “p259-271 SI (stimulation index = response/background)” value ([9]; patient one, 100 μg/well) of the same sequence?
**A.** The value was 3.7.

**Q.** And the “p259-271 SI (stimulation index = response/background)” value ([9]; patient three, 25 μg/well)?
**A.** The value was 4.1.

**Q.** And the “p259-271 SI (stimulation index = response/background)” value ([9]; patient two, 100 μg/well)?
**A.** The value was 2.7.

**Q.** Which Activity [6] does the source give for VIVSLIPSTSSAV [262Ser] here?
**A.** The Activity was “Inhibitory”.

**Q.** And the “Inhibitory activity: percent of responder MG patients whose PBL response to p259-271 was inhibited” value [8]?
**A.** Its value is 90%.

**Q.** What about the “Inhibitory activity: responder MG patients inhibited / tested (response to p259-271)” value [8] of the same sequence?
**A.** Its value is 18.

**Q.** What about the “Inhibitory activity: responder MG patients inhibited / tested (response to p259-271)” value ([8]; listed as 262 Ser) of the same sequence?
**A.** Its value is 18/20.

**Q.** What about the “% Inhibition Mean ± SD” value [8, 10] of the same sequence?
**A.** The value was 88.2 ± 14.9%.

**Q.** What about the “% Inhibition Range” value [8, 10] of the same sequence?
**A.** The value was 57-100%.
